Test results: patent US11091559B2, “Anti-ALK antibodies and methods for use thereof” (Celldex Therapeutics, Inc., priority 2015, dated 2021)

B1: Ab329: anti-ALK monoclonal antibody; VL SEQ ID NO: 413, VH SEQ ID NO: 414 (antibody, V domains shown)
VH: QVQLKESGPGLVKPSATLSLTCTVSGFSLTSYHVCWIRQTPGKGLEWMGVIWGDGRTTYNPPLKSRLSISRDTSKSQVFLKMSSLKTEDTATYYCARATMTGHGDAWGQGASVTVSS
VL: DIQMTQSPASLSASLEEIVTITCQASQDIDNYLSWYQQKPGKSPHLLIHSATSLADGVPSRFSGGRSGTQFSLKINRLQVEDTGIYYCLQHYSGWTFGGGTKLELKR
modifications: VH domain - Ab329; VL domain - Ab329
B2: Ab331: anti-ALK monoclonal antibody; VL SEQ ID NO: 417, VH SEQ ID NO: 418 (antibody, V domains shown)
VH: EVQVVETGGGVVQPGKSLEITCATSGLTFSTAWMYWVRQSSDRRLEWIARIKDKSNNFASDYVESVRGRFTISRDDSRSSVYLQMNNLKEEDTATYYCTTSYGYAWGQGVMVTVSS
VL: DIQMTQSPSSMSASLGDRITITCQASQDIGNYLIWFQQKPGKSPRPLIYYATNLANGVPSRFSGSRSGSEYSLTITSLESEDMADYHCLQYKQHLTFGSGTKLEIER
modifications: VH domain - Ab331; VL domain - Ab331
B3: Ab332: anti-ALK monoclonal antibody; VL SEQ ID NO: 419, VH SEQ ID NO: 420 (antibody, V domains shown)
VH: EVQLQQSGPELVKPGTSVKISCKASGYTFTDYYMNWMKQSHGKSLEWIGDINPNNGVTSYNQKFKGKATLTVDKSSSTAYMELRSLTSEDSAVYYCAREDYGSNYFDYWGQGTTLTVSS
VL: DIVLTQSPASLAVSLGQRATISCKASQSVDYDGDSYMNWYQQKPGQPPKLLIYAASNLESGIPARLSGSGSGTDFTLNIHPVEEEDAATYYCQQSNEDPPTFGGGTKLEIRR
modifications: VH domain - Ab332; VL domain - Ab332

System: N-terminal region of human ALK (M1-G640): NTR, MAM1, LdLa, MAM2 domains
Test: Domain mapping by Western blotting
Format: binding
Settings: domain bound, antibodies to the N-terminal region

Molecule	Bin/Domain (domain)
B1	MAM1
B2	MAM1
B3	NTR
